Values of other authors, collected in patent publication US12049475B2, “Bisphosphonate drug conjugates” (BRISE PHARMACEUTICALS CO., LTD., priority 2018, dated 2024).
For at least one compound, name, drawing or mass did not settle the structure.

Test system: osteoclast activity
Details: literature; cited from earlier work

Question: With `O=P(O)(O)C(O)(Cn1ccnc1)P(=O)(O)O` [Zoledronic acid] as the compound, how does the “OA knee pain and bone marrow edema-like lesion size” value read?
Answer: effective in reducing OA knee pain and bone marrow edema-like lesion size
